# Results deposited as PubChem BioAssay AID1224826 (NIAID, 2016).
# Assay: 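Knock-downs that raise or lower Tnf reporter signal after endotoxin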 (primary screen)
# Cells: RAW264.7 G9 macrophages from mouse bearing reporters for p65 (GFP) and the Tnf promoter (mCherry)
# Reagent: siRNA pool against mouse genes, 100 nM
# Timing: 16 h of LPS stimulation, after 2 days of siRNA transfection
# Treatment: bacterial lipopolysaccharide (Salmonella minnesota R595), 10 ng/ml
# Detection: 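Nuclear mCherry signal of the Tnf promoter reporter measured by imaging after background removal, scaled to each plate median and turned into robust z-scores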
# Direction: Tnf reporter robust z-score: higher = stronger Tnf promoter reporter signal after LPS; Tnf reporter intensity: higher = stronger Tnf promoter reporter signal
# Rule for the call: 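a well counts as active at a score of -1.3 or below (Tlr4 knock-down control median) or above 3 (raised signal); controls and wells holding fewer than 50 cells are excluded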
# Meaning of the calls: active = Tnf reporter clearly lowered or raised; inactive = no clear change in Tnf reporter
# Shown is one part, drawn at random, of about 17,000 reagents tested. In the full data, about 1,110 (6.6%) are marked active. 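Active means lowered or raised reporter signal; replicate intensities are raw and not normalised per plate.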 No sequences are given here.
target,Tnf reporter robust z-score,fewer than 50 cells in well,"Tnf reporter intensity, replicate 1","Tnf reporter intensity, replicate 2",Call
Dnajc17 (DnaJ heat shock protein family (Hsp40) member C17),-0.45,enough cells in well,183,75.6,inactive
Lenep (lens epithelial protein),2.13,enough cells in well,371,214,inactive
Gtpbp4 (GTP binding protein 4),0.53,enough cells in well,241,226,inactive
Tpd52l1 (tumor protein D52-like 1),-0.86,enough cells in well,202,72.2,inactive
"Fpr-rs7 (formyl peptide receptor, related sequence 7)",-0.57,enough cells in well,212,103,inactive
Or5b99 (olfactory receptor family 5 subfamily B member 99),-1.69,enough cells in well,83.5,47.8,active
"Fam199x (family with sequence similarity 199, X-linked)",0.45,enough cells in well,248,227,inactive
Apba1 (amyloid beta precursor protein binding family A member 1),1.87,enough cells in well,290,257,inactive
Tma16 (translation machinery associated 16),1.87,enough cells in well,266,94.9,inactive
"Pcdhgb8 (protocadherin gamma subfamily B, 8)",-1.18,enough cells in well,66.1,101,inactive
Asb2 (ankyrin repeat and SOCS box-containing 2),0.22,enough cells in well,147,186,inactive
"Serping1 (serine (or cysteine) peptidase inhibitor, clade G, member 1)",-0.86,enough cells in well,197,153,inactive
Wbp1 (WW domain binding protein 1),-0.06,enough cells in well,103,97.8,inactive
"Rev3l (REV3 like, DNA directed polymerase zeta catalytic subunit)",-0.84,enough cells in well,176,177,inactive
"Idh2 (isocitrate dehydrogenase 2 (NADP+), mitochondrial)",-0.51,enough cells in well,158,109,inactive
Capza1b (capping actin protein of muscle Z-line subunit alpha 1B),-0.58,enough cells in well,179,49.2,inactive

Entries listed so far marked active, once more:
target,Tnf reporter robust z-score,fewer than 50 cells in well,"Tnf reporter intensity, replicate 1","Tnf reporter intensity, replicate 2",Call
Or5b99 (olfactory receptor family 5 subfamily B member 99),-1.69,enough cells in well,83.5,47.8,active

Continued.
target,Tnf reporter robust z-score,fewer than 50 cells in well,"Tnf reporter intensity, replicate 1","Tnf reporter intensity, replicate 2",Call
Sacm1l (SAC1 suppressor of actin mutations 1-like (yeast)),-1.54,enough cells in well,85,37.6,active
Uaca,0.14,enough cells in well,124,118,inactive
Endog (endonuclease G),-0.92,enough cells in well,162,100,inactive
Phc2 (polyhomeotic 2),0.32,enough cells in well,260,224,inactive
Hgfac (hepatocyte growth factor activator),-0.66,enough cells in well,167,163,inactive
Ddx18 (DEAD box helicase 18),-0.92,enough cells in well,143,159,inactive
"Dtx4 (deltex 4, E3 ubiquitin ligase)",0.89,enough cells in well,241,150,inactive
Or4c11b (olfactory receptor family 4 subfamily C member 11B),1.6,enough cells in well,244,267,inactive
